The experiment concerns the target RNA-Binding Protein with Multiple Splicing (human (endogenous in hESCs)) (UniProt Q93062). The experiment in a line: affinity purification with mass spectrometry.

The chains behind the UniProt entries cited, without tags or fusion partners.
UniProt P63241: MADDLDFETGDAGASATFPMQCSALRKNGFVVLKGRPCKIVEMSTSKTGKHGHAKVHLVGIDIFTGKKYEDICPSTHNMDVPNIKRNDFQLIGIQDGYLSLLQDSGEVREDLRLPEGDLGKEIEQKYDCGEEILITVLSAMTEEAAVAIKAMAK

No constants are given. Whether binding was seen depends on the method and setting. Binding seen in cells or lysates may run through a third protein. These calls come from enrichment with a bait or labelling near it, and not all partners need be listed.

Take eIF5A (from UniProt P63241 1-154): the binding result is listed as “binds”.

For the origin of these results see publication doi:10.1101/2021.04.12.439420.
